From US20220324934A1 (Stanford University, published 2022)
Where a chain is given by its changes, count along the chain named. Results are given in words; binding and its absence hold for the method and conditions named. Some results given as binding are weak or reduced against the parent protein; the word gives no strength. Where a sequence is shown, tags or fusion partners need not be part of it.

B1: in silico designed IL-2 variant SEQ ID NO: 1, MSA fusion protein (ligand, not shown: large carriers; small tags and cut ends)
chain: APTSSSTKKTQLQLEHLLLDLQMILNMLNNYDNPKLTRLLTFKFYMPKKATSLKHLQCLEEELKPLEEALNAAGDDPKTIRDVVSNINVFVLELKGSETTFMCEYADETATIIEFLNRWITFCQSIISTLT
B2: in silico designed IL-2 variant SEQ ID NO: 6, MSA fusion protein (ligand, not shown: large carriers; small tags and cut ends)
chain: B1 chain with D32E, L39M, A72Q, V83L, V84I, F90I
B3: in silico designed IL-2 variant SEQ ID NO: 7, MSA fusion protein (ligand, not shown: large carriers; small tags and cut ends)
chain: APTSSSTKKTQLQLEHLLLDLQMILNMLNNYDNPKLTRMLTFKFYMPKKATELKHLQCLEEELKPLEEALNQADSTDETVRDLISNINVIVLELKGSETTFMCEYADETATIIEFLNRWITFCQSIISTLT
B4: in silico designed IL-2 variant SEQ ID NO: 8, MSA fusion protein (ligand, not shown: large carriers; small tags and cut ends)
chain: B1 chain with G74D, D75S, D76T, P77D, K78E, T79R

These binders were tested against T1, IL-2Rβ (UniProt P14784 27-240, limits assumed, biotinylated (site not stated)) (assay: SPR Biacore).
T1 construct: also called CD122; IL-2Rbeta
T1 sequence (looked up): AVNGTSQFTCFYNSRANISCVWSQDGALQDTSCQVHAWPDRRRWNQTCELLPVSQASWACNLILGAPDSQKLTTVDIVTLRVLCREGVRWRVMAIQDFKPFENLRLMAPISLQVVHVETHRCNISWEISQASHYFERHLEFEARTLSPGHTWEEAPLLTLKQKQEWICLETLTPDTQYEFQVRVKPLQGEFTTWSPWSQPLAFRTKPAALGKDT
With B1 the binding was “binds”.
B2 was tested, and the binding was “binds”.
With B3 the binding was “binds”.
For B4, the binding was “binds”.
